# No constants are given. Whether binding was seen depends on the method and setting. Some entries that bind do so weakly or less than the wild type.
# T1: human collagen type III (Sigma) (human, UniProt P02461 154-1221, limits assumed)
# T1 construct: Purified natural collagen immobilised on the chip (331 RU); also called Collagen type III (human)
# T1 sequence (looked up): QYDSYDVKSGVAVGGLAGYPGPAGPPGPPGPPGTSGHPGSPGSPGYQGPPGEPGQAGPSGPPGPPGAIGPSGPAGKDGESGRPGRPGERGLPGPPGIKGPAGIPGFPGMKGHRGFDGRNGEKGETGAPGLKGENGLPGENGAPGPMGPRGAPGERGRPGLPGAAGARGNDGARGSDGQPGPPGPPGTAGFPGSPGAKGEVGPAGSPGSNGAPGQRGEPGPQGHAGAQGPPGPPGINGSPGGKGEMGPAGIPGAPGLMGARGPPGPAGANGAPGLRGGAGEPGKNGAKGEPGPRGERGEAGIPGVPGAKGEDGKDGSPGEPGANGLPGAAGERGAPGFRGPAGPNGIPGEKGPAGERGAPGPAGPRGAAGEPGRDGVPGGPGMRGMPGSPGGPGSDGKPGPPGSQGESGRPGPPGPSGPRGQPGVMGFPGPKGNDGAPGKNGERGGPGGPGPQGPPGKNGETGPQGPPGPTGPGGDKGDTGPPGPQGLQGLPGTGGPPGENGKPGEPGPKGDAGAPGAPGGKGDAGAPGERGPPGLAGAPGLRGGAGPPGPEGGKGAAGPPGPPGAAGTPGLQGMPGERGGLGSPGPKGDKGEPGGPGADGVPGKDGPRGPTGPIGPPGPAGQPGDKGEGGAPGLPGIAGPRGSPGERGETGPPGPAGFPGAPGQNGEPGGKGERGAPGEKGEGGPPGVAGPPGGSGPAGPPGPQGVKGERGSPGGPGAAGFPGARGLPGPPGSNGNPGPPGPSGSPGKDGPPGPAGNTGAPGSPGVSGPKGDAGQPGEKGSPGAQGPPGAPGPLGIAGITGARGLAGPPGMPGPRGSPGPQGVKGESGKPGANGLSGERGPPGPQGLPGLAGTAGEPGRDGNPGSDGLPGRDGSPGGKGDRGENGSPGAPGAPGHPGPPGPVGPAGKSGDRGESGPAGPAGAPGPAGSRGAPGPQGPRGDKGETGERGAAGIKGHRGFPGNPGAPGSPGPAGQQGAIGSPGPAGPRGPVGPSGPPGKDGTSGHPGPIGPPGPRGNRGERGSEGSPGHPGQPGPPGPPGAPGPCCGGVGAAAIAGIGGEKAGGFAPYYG
# Molecular target: T1, human collagen type III (Sigma)
# Experiment: SPR, BIAcore 3000, collagen type III immobilised, GPVI in solution, 25 C
# Procedure: Protein interactions were identified and characterized by SPR technology using the BIAcore® 3000 instrument (BIAcore®, Freiburg, Germany) and methodology (Johnsson and Lindqvist, 1992; Johnsson et al., 1991). Coupling reagents were used according to protocols developed by the supplier. Coupling to the CM 5 sensor chip was done via activated carboxylate groups to free amine groups of human collagen type III (Sigma®). The pH-scouting and the coupling chemistry was performed under standard conditions (Johnsson and Lindqvist, 1992; Johnsson et al., 1991). For coupling the collagen was diluted to 0.125 µg/ml into 10 mM acetate buffer pH 4.5, resulting in 331 RU immobilized material.
# For the binding experiments purified recombinant glycoprotein VI was used. The protein was diluted into 20 mM Hepes, pH 7.4, 150 mM NaCl, 5 mM EDTA, 0.005% Tween® 20. All binding experiments were performed at 25° C. and performed in duplicates.
binder,measurement,value
"purified recombinant glycoprotein VI (receptor, UniProt Q9HCN6 21-269, looked up, also called GPVI; purified soluble GPVI) QSGPLPKPSLQALPSSLVPLEKPVTLRCQGPPGVDLYRLEKLSSSRYQDQAVLFIPAMKRSLAGRYRCSYQNGSLWSLPSDQLELVATGVFAKPSLSAQPGPAVSSGGDVTLQCQTRYGFDQFALYKEGDPAPYKNPERWYRASFPIITVTAAHSGTYRCYSFSSRDPYLWSAPSDPLELVVTGTSVTPSRLPTEPPSPVAEFSEATAELTVSFTNEVFTTETSRSITASPKESDSPAGPARQYYTKGN",binding,binds
